Measured values: US11191746B2, “Composition for inhibiting a growth of cancer stem cells comprising ciclesonide” (JEJU NATIONAL UNIVERSITY INDUSTRY-ACADEMIC COOPERATION …, priority 2016, dated 2021)
For at least one compound, name, drawing or mass did not settle the structure.

Columns and labels:
Assay type in all cases: cell-based, human
[1] = test system: MCF-7 cell-derived mammospheres; assay: Mammosphere formation; conditions: MCF-7 mammospheres, 80 μM
Description: (§1) Human breast cancer cells, MCF-7, were obtained from American Type Culture Collection (ATCC; Manassas, Va., USA). MCF-7 cells and MDA-MB-231 cells were cultured in Dulbecco's Modified Essential Medium (DMEM; Hyclone, Logan, Utah, USA) containing 10% fetal bovine serum (FBS; Hyclone), 100 U/ml of penicillin, and 100 μg/ml of streptomycin (Hyclone). The MCF-7 cells were maintained in a humidified incubator containing 5% CO2 at 37° C. The cells were plated in 10 cm culture dishes at a density of 1×10^6 cells. To establish primary mammospheres, single cell-suspended MCF-7 cells were inoculated into ultra-low attachment 6-well plates containing 2 ml of complete MammoCult™ medium (StemCell Technologies, Vancouver, BC, Canada) at a density of 3.5 to 4×10^4 cells/well. […]
(§2) On day 10 of culture, cell culture plates were placed on a scanner (Epson Perfection V700 PHOTO, Epson Korea, Co, Seoul, Korea) to obtain 8-bit gray scale images of mammospheres. […] The background signals of the images were negated using a threshold algorithm, and the selected images were automatically counted. To analyze the formation of mammospheres, mammosphere formation efficiency (MFE, %) was determined by the following equation: MFE (%)=the number of mammospheres per well/a total number of plated cells per well×100.

[2] = test system: MDA-MB-231 cell-derived mammospheres; assay: Mammosphere formation; conditions: MDA-MB-231 mammospheres, 80 μM
Description: as §1, §2

[3] = test system: A549 cell-derived tumorspheres; assay: Tumorsphere formation; conditions: 80 μM
Description: Human lung cancer cells, A549, were cultured under the same culture conditions as those for the breast cancer cells of Example 2-1. To establish primary tumorspheres, single cell-suspended A549 cells were inoculated into ultra-low attachment 6-well plates containing 2 ml of Cancer Stem Premium medium (ProMab Biotechnologies Inc, Richmond, Calif., USA) at a density of 5×10^4 cells/well. The cells were incubated in a 5% CO2 incubator at 37° C. for 10 days.
Lung cancer tumorspheres were counted in the same manner as in Example 3-1, and for the analysis of tumorsphere formation, tumorsphere formation efficiency (TFE, %) was determined by the following equation: TFE (%)=number of tumorspheres per well/total number of plated cells per well×100.

With `C[C@@H]1C[C@H]2[C@@H]3CCC4=CC(=O)C=C[C@]4(C)[C@@]3(F)[C@@H](O)C[C@]2(C)[C@@]1(O)C(=O)CO` [dexamethasone] the “growth of breast cancer stem cells” value [1] was “unable to inhibit”, the “growth of breast cancer stem cells” value [2] was “unable to inhibit” and the “lung cancer stem cell inhibitory activity” value [3] was “did not exhibit a lung cancer stem cell inhibitory activity”.
